# No constants are given. Whether binding was seen depends on the method and setting. Binding seen in cells or lysates may run through a third protein. Some results given as binding are weak or reduced against the parent protein; the word gives no strength. For some assays here: Where a sequence is shown, tags or fusion partners need not be part of it.
# By UniProt entry, the sequences of proteins in these tests, tags left out.
# UniProt Q8R4B8: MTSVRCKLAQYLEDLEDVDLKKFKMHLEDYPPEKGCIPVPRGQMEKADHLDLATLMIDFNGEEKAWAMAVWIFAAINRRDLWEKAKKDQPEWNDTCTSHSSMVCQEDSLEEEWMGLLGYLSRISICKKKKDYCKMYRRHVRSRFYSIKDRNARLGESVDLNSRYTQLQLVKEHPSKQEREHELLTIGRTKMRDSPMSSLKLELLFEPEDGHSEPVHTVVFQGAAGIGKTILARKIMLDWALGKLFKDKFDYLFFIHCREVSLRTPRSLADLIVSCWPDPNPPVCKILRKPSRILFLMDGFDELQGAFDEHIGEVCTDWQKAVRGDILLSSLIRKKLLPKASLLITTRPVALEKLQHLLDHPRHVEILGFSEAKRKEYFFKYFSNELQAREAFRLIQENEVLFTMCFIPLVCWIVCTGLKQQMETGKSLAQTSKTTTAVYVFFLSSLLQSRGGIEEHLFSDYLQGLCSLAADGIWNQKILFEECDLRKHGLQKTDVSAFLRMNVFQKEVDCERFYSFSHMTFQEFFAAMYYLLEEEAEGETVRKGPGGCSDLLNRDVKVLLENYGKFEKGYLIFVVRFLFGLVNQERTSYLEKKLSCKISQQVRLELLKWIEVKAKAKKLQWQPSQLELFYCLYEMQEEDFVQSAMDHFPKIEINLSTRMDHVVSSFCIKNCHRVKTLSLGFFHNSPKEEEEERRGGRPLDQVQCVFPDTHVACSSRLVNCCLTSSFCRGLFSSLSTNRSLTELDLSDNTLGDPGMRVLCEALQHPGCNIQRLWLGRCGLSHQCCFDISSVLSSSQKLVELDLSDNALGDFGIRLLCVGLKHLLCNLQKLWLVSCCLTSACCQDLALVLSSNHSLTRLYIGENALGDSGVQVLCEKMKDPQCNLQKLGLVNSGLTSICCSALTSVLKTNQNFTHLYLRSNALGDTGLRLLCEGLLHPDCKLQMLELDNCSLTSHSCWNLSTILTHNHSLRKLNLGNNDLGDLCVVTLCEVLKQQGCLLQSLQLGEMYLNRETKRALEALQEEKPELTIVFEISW
# Assays:
# [1] = target: T1, pCDNA3.1(+)-3×FLAG-TREM2 (TREM2 overexpressed in BV2 cells) (murine) (UniProt Q99NH8); experiment: co-IP; BV2 lysates (WT, TREM2 KO, TREM2 OE; with or without 35 mM high glucose) in RIPA buffer (1% NP-40, 0.25% deoxycholate), immunoprecipitated with anti-TREM2 antibody or control IgG and protein A/G beads at 4 °C overnight; blotted for NLRP3 and TREM2
# T1 sequence: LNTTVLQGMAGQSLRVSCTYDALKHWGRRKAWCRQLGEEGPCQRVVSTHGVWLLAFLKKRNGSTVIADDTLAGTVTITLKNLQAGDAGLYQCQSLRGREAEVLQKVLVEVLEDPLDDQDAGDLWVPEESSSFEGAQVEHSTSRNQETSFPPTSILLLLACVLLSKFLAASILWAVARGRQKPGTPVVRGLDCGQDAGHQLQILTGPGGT
# [2] = target: T2, TREM2 (triggering receptor expressed on myeloid cells-2) (mouse (endogenous in BV2)) (UniProt Q99NH8); experiment: as above
# T2 sequence: T1 sequence
substance,measurement,setting,value
NLRP3 (nucleotide-binding oligomerization domain-like receptor protein 3) (from UniProt Q8R4B8 1-1033),binding,[1],binds
same,binding,[2],binds

# From article PMC8306970
